From PubChem BioAssay AID587 (National Center for Advancing Translational Sciences (NCATS), 2007)
The whole screen tested about 59,000 compounds, of which about 35 (0.06%) were called active. Inconclusive means that the source gave no clear call. Such entries were picked first, then a sample of the others. Rule as the data show it: active = max dye-equivalent concentration above about 10 nM; inconclusive = between about 1.1 nM and that limit; inactive = weaker than that.

Assay: qHTS Assay for Spectroscopic Profiling in Texas Red Spectral Region
Details: Compound fluorescence, Texas Red channel, 547/618 nm; hits give high values
In short: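 Dye-equivalent concentrations come from scaling compound signal (ex 547, em 618 nm) to six Texas Red standard concentrations run on every plate, after 15 min room-temperature incubation in pH 8.0 Tris (100 mM).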

| Compound | max dye-equivalent concentration |
| --- | --- |
| COc1cc(C(=O)O)c([N+](=O)[O-])c(OC)c1OC | inactive |
| CC(C)(C#N)Nc1ccccc1 | inconclusive: 1.3 nM |
| Cn1c(SCC(=O)Nc2ccc3c(c2)OCCO3)nnc1-c1ccco1 | inconclusive: 1.3 nM |
| O=C(Nc1cccc(C(=O)Nc2ccc(S(=O)(=O)O)c3cc(S(=O)(=O)O)cc(S(=O)(=O)O)c23)c1)Nc1cccc(C(=O)Nc2ccc(S(=O)(=O)O)c3cc(S(=O)(=O)O)cc(S(=O)(=O)O)c23)c1 | inconclusive: 1.2 nM |
| O=C(NC1CCCC1)C1CC(=O)N(CCc2ccccc2)C1 (centres undefined) | inconclusive: 1.4 nM |
| CN1CCN(C(=O)C2CC(c3c(F)cccc3Cl)=NO2)CC1 (centres undefined) | inconclusive: 1.3 nM |
| COC(=O)C1=C(C)NC(C)=C(C(=O)OCCN(C)Cc2ccccc2)[C@@H]1c1cccc([N+](=O)[O-])c1 | inactive |
| Cc1nc(NCc2ccccc2)[nH]c(=O)c1CCC(C)C | inconclusive: 1.2 nM |
| COc1ccc(OCC(=O)Nc2cccc3cccnc23)cc1 | inconclusive: 1.6 nM |
| Cc1noc(C)c1CSc1nc2sc(C)c(C)c2c(=O)n1C1CCCC1 | inconclusive: 1.2 nM |
| COc1ccccc1-c1cc(C(=O)NCc2cccs2)no1 | inconclusive: 1.2 nM |
| CCOC(=O)N1CCN(C(=O)CSc2nnc(-c3cccc(OC)c3)o2)CC1 | inconclusive: 1.2 nM |
| Cc1sc2nc(SCC(=O)NCc3ccco3)n(CCc3ccccc3)c(=O)c2c1C | inconclusive: 1.2 nM |
| CCOC(=O)c1c(C)[nH]c(C)c1C(=O)Cn1nnc(-c2ccccc2C)n1 | inactive |
| Cn1c(SCC(=O)NCc2ccc3c(c2)OCO3)nnc1-c1c[nH]c2ccccc12 | inconclusive: 1.7 nM |
| CC(=O)c1ccc(Nc2nc(C)nc3c2oc2ccccc23)cc1 | inconclusive: 1.1 nM |
| CCOC(=O)c1cc2c(ccn2C)n1CC(=O)N1CCN(c2ccc(F)cc2)CC1 | inconclusive: 1.3 nM |
| CC1(C)C(=O)C2(CCCCC2)C(=O)OC1c1cccs1 (centres undefined) | inconclusive: 1.6 nM |
| CC(C)N(C(=O)CSc1nnnn1C1CCCC1)C(C)C | inconclusive: 1.2 nM |
| Cc1nn2c(-c3ccc(Cl)cc3Cl)nnc2s1 | inconclusive: 1.1 nM |
| CC(=O)NS(=O)(=O)c1ccc(N)cc1 | inconclusive: 1.6 nM |
| CCOC(=O)NCC(C#CCN(CC)CC)N(CC)CC (centres undefined) | inconclusive: 2.5 nM |
| CCOc1ccccc1C(=O)N1CCN(c2cccc(Cl)c2)CC1 | inconclusive: 1.3 nM |
| CC(C#N)On1c(SC(C)C#N)nc2ccccc2c1=O (centres undefined) | inconclusive: 1.1 nM |
| Cc1ccc(NC(=O)c2cnn(-c3ccccc3)c2NC(=O)c2ccco2)cc1C | inconclusive: 1.1 nM |
| O=C(c1cn(CC(=O)N2CCCCC2)c2ccccc12)C1CC1 | inconclusive: 1.1 nM |
| CCOC(=O)N1CCN(C(=O)C2CCCN(S(=O)(=O)c3cc(C)ccc3OC)C2)CC1 (centres undefined) | inconclusive: 1.1 nM |

| Compound | max dye-equivalent concentration |
| --- | --- |
| CCOC(=O)c1c(C)oc2ccc(OCC(=O)N(CC)CC)cc12 | inconclusive: 1.3 nM |
| Cc1ccc(-n2c(SCC(=O)NCC3CCCO3)nnc2-c2ccoc2C)cc1 (centres undefined) | inconclusive: 2.3 nM |
| Cc1nn(-c2ccc(Cl)cc2)c2sc(C(=O)N3CCN(C(=O)c4ccco4)CC3)cc12 | inconclusive: 1.1 nM |
| Cc1nc(NC(=O)C2CC2)sc1C(=O)N1CCCCC1 | inconclusive: 2.1 nM |
| Cn1c(SCc2cnc(-c3ccccc3)s2)nnc1C1COc2ccccc2O1 (centres undefined) | inconclusive: 1.1 nM |
| O=S(=O)(NC1CCN(Cc2ccccc2)CC1)c1cccc2cccnc12 | inconclusive: 1.3 nM |
| O=C(CN1CCN(c2ncccn2)CC1)Nc1ccccc1-n1cccc1 | inconclusive: 1.8 nM |
| COc1cc(C2C3CN(C)CC=C3C(C#N)=C(N)C2(C#N)C#N)ccc1OC(C)C (centres undefined) | inactive |
| COc1cccc(C(=O)OCCN2C(=O)c3ccccc3C2=O)c1OC | inconclusive: 1.5 nM |
| CN1CCN(Cc2c(C#N)c3ccccc3n2C)CC1 | inconclusive: 1.9 nM |
| COC(=O)C1=C(N)Oc2cc(C)n(Cc3cccnc3)c(=O)c2C1c1ccccc1OC (centres undefined) | inconclusive: 1.4 nM |
| COC(=O)C1=CO[C@@H](C)[C@H]2CN3CCc4c([nH]c5ccccc45)[C@@H]3C[C@H]12 | inactive |
| CCN(CC)S(=O)(=O)c1ccc(F)c(C(=O)NCCC(C)C)c1 | inconclusive: 1.8 nM |
| Cc1ccccc1Cn1cc(NC(=O)c2cc3nc(-c4ccco4)cc(C(F)(F)F)n3n2)cn1 | inconclusive: 1.3 nM |
| COCCn1c(SCC(=O)Nc2ccc3c(c2)OCCO3)nnc1-c1c[nH]c2ccccc12 | inconclusive: 1.9 nM |
| CC1CC(C)CN(c2oc(-c3ccccc3Cl)nc2C#N)C1 (centres undefined) | inconclusive: 1.6 nM |
| CCOC(=O)c1c(C)n(C)c2ccc(OCC(O)Cn3nc(C)cc3C)cc12 (centres undefined) | inconclusive: 1.2 nM |
| O=c1[nH]c(SCc2c(Cl)c(Cl)c(Cl)c(Cl)c2Cl)nc(=S)[nH]1 | inactive |
| Cn1c(=O)c2c(nc(CN3CCC(Cc4ccccc4)CC3)n2CCN2CCOCC2)n(C)c1=O | inconclusive: 2.1 nM |
| CCc1ccc2c(c1)[C@]1(C(=O)N2)[C@@H]2C(=O)N(Cc3ccccc3)C(=O)[C@@H]2[C@@H]2CCCN21 | inconclusive: 1.1 nM |
| COc1ccc(-c2noc(CN(C)S(=O)(=O)c3ccccc3)n2)cc1OC | inconclusive: 1.6 nM |
| CN1C(=O)c2cccc(N(C)C)c2C1=O | inactive |
| c1coc(CNc2ncnc3nc[nH]c23)c1 | inconclusive: 1.4 nM |
| C=CCn1c(=O)/c(=C/c2ccc(O)cc2)s/c1=C(/C#N)c1nnc2n1CCCCC2 | inactive |
| COc1ccc2nccc(C(=O)O)c2c1 | inactive |
| C[N+]1=C2CCCCCN2C(O)(c2ccccc2)C1 (centres undefined) | inconclusive: 1.6 nM |
| Cc1ccc(N2CC(C(=O)N3CCN(c4ccccc4)CC3)CC2=O)cc1 (centres undefined) | inconclusive: 1.5 nM |

Among those listed so far, these have a COOH group.

| Compound | max dye-equivalent concentration |
| --- | --- |
| COc1cc(C(=O)O)c([N+](=O)[O-])c(OC)c1OC | inactive |
| COc1ccc2nccc(C(=O)O)c2c1 | inactive |
